Measurements as given in PMC5834255.
Results are given in words; binding and its absence hold for the method and conditions named. In cells and extracts the contact can be indirect. Some results given as binding are weak or reduced against the parent protein; the word gives no strength.

Sequences of proteins named here, by UniProt entry; tags and fusion partners are left off.
UniProt Q04206: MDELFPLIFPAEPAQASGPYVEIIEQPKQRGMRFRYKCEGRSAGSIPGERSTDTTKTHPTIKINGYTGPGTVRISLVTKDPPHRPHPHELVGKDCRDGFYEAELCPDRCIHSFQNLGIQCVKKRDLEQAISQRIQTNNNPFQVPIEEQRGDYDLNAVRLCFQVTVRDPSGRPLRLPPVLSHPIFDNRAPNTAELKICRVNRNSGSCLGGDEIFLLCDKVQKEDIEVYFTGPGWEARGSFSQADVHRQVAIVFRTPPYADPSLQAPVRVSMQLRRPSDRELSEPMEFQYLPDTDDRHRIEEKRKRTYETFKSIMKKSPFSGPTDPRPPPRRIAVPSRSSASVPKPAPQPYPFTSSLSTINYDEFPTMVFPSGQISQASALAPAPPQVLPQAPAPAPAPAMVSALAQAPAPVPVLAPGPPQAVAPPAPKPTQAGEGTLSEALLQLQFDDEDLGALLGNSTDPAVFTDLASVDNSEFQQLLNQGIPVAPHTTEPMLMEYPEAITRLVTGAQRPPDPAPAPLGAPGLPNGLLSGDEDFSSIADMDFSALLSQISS
UniProt P27695: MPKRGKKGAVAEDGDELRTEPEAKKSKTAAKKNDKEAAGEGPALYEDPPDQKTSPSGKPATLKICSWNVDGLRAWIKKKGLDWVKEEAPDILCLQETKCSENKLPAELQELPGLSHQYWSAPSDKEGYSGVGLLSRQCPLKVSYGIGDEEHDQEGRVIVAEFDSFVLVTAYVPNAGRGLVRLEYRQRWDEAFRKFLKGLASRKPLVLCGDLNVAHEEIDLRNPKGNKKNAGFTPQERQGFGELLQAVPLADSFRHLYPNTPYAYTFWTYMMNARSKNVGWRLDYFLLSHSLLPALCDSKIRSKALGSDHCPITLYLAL

Legend:
[1] = biological target: NFκB subunit p65 (human (endogenous in human prostatic cell lines; line of the co-IP not named)) (UniProt Q04206); assay: co-IP; Pierce Co-IP kit; cells cross-linked with DTBP (5 mM, 30 min on ice) before lysis; IP with APE1/Ref-1 antibody and, in reverse, with p65 antibody; immunoblot; beads without antibody (Mock) and generic IgG as negative controls
[2] = biological target: Apurinic/apyrimidinic endonuclease 1/redox effector factor 1 (APE1/Ref-1) (human (endogenous in human prostatic cell lines; line of the co-IP not named)) (UniProt P27695); assay: as above

In the case of “Apurinic/apyrimidinic endonuclease 1/redox effector factor 1 (APE1/Ref-1) (from UniProt P27695 1-318)”, the binding [1] is reported as “binds”.
In the case of “NFκB subunit p65 (from UniProt Q04206 1-551)”, the binding [2] is reported as “binds”.
